Test results reported in article PMC6925144, “A prospective compound screening contest identified broader inhibitors for Sirtuin 1” (Scientific Reports, 2019).
Whole data set: some 3,200 compounds, median “TSA(without NAD+) / Primary screening (TSA) / delta Tm (K)” near -0.07, cut for the highest 2% near 0.37. This is one part of the list.

Chains of the proteins cited; added tags and fusions are not shown. Residues count along the entry.
UniProt Q96EB6, 2-747 limits assumed: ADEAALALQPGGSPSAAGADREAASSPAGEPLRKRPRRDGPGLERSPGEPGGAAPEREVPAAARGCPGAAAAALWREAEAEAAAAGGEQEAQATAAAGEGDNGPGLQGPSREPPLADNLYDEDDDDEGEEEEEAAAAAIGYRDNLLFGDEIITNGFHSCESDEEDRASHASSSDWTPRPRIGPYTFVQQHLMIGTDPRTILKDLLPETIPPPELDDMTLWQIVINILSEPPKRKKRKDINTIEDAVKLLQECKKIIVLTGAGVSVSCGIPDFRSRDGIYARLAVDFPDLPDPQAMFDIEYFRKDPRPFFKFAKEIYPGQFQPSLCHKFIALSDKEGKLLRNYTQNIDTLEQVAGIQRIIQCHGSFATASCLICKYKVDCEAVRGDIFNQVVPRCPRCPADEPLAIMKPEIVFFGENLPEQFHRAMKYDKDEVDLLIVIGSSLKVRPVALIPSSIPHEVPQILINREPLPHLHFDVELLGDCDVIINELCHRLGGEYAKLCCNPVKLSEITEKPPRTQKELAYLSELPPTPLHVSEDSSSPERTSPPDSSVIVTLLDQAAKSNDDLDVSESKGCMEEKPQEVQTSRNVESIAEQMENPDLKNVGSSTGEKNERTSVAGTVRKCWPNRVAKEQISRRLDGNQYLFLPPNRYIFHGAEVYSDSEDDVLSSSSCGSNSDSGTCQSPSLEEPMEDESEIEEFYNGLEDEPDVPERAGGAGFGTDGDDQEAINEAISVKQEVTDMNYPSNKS

Biological target: NAD-dependent deacetylase Sirtuin 1 (human, UniProt Q96EB6)
Test: primary screen, delta tm
Parameters: single well (n = 1)
Settings: 10 µM
Experimental: A total of 3,192 compounds extracted from the proposed lists were first screened by thermal shift assay (TSA), which determined a melting temperature shift (ΔTm) of Sirtuin 1 upon the addition of a test compound at a concentration of 10 µM (n = 1) with primary hit criteria of ΔTm > 0.45 K or ΔTm < −1.5 K. Primary hits (48 compounds) were retested in the same assay at three concentrations (5, 10, 20 µM, n = 4) for hit confirmation and for dose-dependency check. Secondary hits (41 compounds) were checked their selectivity for Sirtuin 1 based on counterscreening on unrelated protein targets (bovine carbonic anhydrase (CA) and recombinant SH2 domain of hABL1 kinase (ABL1)) at three different concentrations (5, 10, 20 µM, n = 4), which yielded 38 hit compounds, hereafter referred to as TSA hits. The TSA screening above was conducted in the absence of NAD+.

| SMILES | TSA(without NAD+) / Primary screening (TSA) / delta Tm (K) |
| --- | --- |
| O=C(Cc1csc(-c2ccco2)n1)N(C/C=C/c1ccccc1)c1ccc2c(c1)OCCO2 | -0.12 |
| Cc1nc2cc(C(=O)O)ccc2[nH]1 | -0.07 |
| CN(c1cccc(Cl)c1)S(=O)(=O)c1cccc(C(=O)N2CCc3[nH]c4ccccc4c3C2)c1 | -0.03 |
| O=[N+]([O-])c1ccc(CSc2nc3ccccc3c3nc(CCc4c[nH]c5ccccc45)nn23)cc1 | 0.36 |
| COc1ccc(S(=O)(=O)N2CCc3ccccc32)cc1C(=O)NCC12CC3CC(CC(C3)C1)C2 | 0.22 |
| CC(CS(C)=O)C(=O)O (stereo not shown) | -0.22 |
| NC(=O)CC1CCN(c2ncnc3cc(Cl)ccc23)CC1 | -0.05 |
| COC(=O)CC(C)(NC(=O)Nc1ccc(SC(C)(C)C)cc1C)c1ccncc1 (stereo not shown) | -0.07 |
| O=C(O)CC(O)C(=O)O (stereo not shown) | -0.12 |
| O=C(NCc1ccccc1O)c1ccc2c(c1)C(=O)c1ccccc1-2 | 0.16 |
| O=C(NC(Cc1ccccc1)C(=O)N1CCCCCCC1)c1ccccc1 (stereo not shown) | -0.11 |
| C=CCOc1ccc(/C=C/C(=O)NC(Cc2ccccc2)c2nc3ccccc3[nH]2)cc1 (stereo not shown) | -0.02 |
| O=C(O)c1cccc(C(=O)O)n1 | 0.02 |
| O=C(CSc1nnc(NCc2ccco2)s1)N(c1ccccc1)C1CCS(=O)(=O)C1 (stereo not shown) | -0.17 |
| CNc1ncc(C(F)(F)F)cc1Cl | -0.28 |
| CCC(O)(CC)CN | -0.18 |
| CC(C)COc1ccc(C(=O)C2=C(O)C(=O)N(CCN3CCOCC3)C2c2ccc(F)cc2)cc1 (stereo not shown) | 0.06 |
| CCC(C)N (stereo not shown) | 0.35 |
| Cc1ccc(C2(c3ccc(C)cc3)NC(=O)N(CC(=O)NC34CC5CC(CC(C5)C3)C4)C2=O)cc1 | -0.01 |
| CN(c1ccccc1)S(=O)(=O)c1cccc(C(=O)Nc2sccc2C(N)=O)c1 | 0.38 |
| CONC(=O)c1c(-c2ccccc2)n(C)c2ccccc12 | -0.24 |
| Cc1nc(-c2ccc(NC(=O)[C@H](C)NC(=O)OCc3ccccc3)cc2)cs1 | 0.02 |
| NCCc1nc2cc(C(=O)O)ccc2[nH]1 | -0.23 |
| CNC(=O)c1c(-c2ccccc2)n(C)c2ccccc12 | 0.02 |
| CCOc1ccc(C2C(C(=O)c3ccco3)=C(O)C(=O)N2CCCN2CCOCC2)cc1OC (stereo not shown) | -0.12 |

| SMILES | TSA(without NAD+) / Primary screening (TSA) / delta Tm (K) |
| --- | --- |
| CC1CCCCC1NC(=O)CN1C(=O)NC2(CCc3ccccc3C2)C1=O (stereo not shown) | -0.23 |
| O=C(Nc1cccc2ccccc12)N1CC=C(c2ccccc2)CC1 | -0.03 |
| O=S1(=O)CC(O)C(N2CCN(c3ncnc4c3oc3ccccc34)CC2)C1 (stereo not shown) | -0.08 |
| CCOc1ccc(NC(=O)COc2ccc(C(=O)NC34CC5CC(CC(C5)C3)C4)cc2OC)cc1 | -0.12 |
| COc1cccc(C(=O)C2=C(O)C(=O)N(CCCN3CCOCC3)C2c2cccc([N+](=O)[O-])c2)c1 (stereo not shown) | -0.08 |
| Cc1cnc(N2CCC(Oc3ccnc(C(N)=O)c3)CC2)s1 | -0.32 |
| Cc1ccc(-c2csc(NC(=O)c3ccnc4c(C(N)=O)cnn34)n2)c(C)c1 | -0.05 |
| COc1cccc2cc(C(=O)C3=C(O)C(=O)N(CCN4CCOCC4)C3c3ccc(C)cc3)oc12 (stereo not shown) | 0.06 |
| Cc1ccccc1CC(=O)Nc1ccc(N2CCN(Cc3ccccc3)CC2)cc1 | 0.15 |
| COc1ccc(C(N)=O)cc1NC(=O)c1nn(-c2ccc(C)c(F)c2)c2c1CCCC2 | -0.02 |
| Cc1nc2ccccc2c2c(NC(=O)c3cnccn3)c3ccccc3n12 | -0.04 |
| COc1ccc2cc(CNc3ncnc4[nH]ncc34)ccc2c1 | -0.08 |
| CC(C)(CNc1ncnc2ccsc12)C(N)=O | -0.02 |
| COc1ccc(C(=O)OC(C)C(N)=O)cc1F (stereo not shown) | 0.03 |
| CNS(=O)(=O)c1ccc(CCC(=O)Nc2ccccc2Cc2ccccc2)cc1 | -0.04 |
| CC(=O)N1N=C(c2ccc(O)cc2)CC1c1ccccc1 (stereo not shown) | 0.07 |
| NS(=O)(=O)c1ccc(C(=O)Nc2ccc3c(c2)-c2ccccc2C3)cc1 | 0.23 |
| Cc1cccc(NC(=O)CN2CCN(CC3CCCCC3)CC2)c1C | -0.15 |
| CN(C(=O)CCN/C(O)=C1/N=CC=CC1=O)c1ccc2ccccc2c1 | -0.08 |
| Cc1c(C(=O)O)cnc2nc3ccccc3n12 | -0.18 |
| Cc1ccc([N+](=O)[O-])c(Oc2nc(CN3CCOCC3)nc3scc(-c4cccs4)c23)c1 | -0.24 |
| CCN(CC(=O)NCc1ccc(F)cc1)Cc1ccc(C(=O)Nc2ccccc2)cc1 | -0.17 |
| O=c1[nH]cnc2c1cnn2-c1ccncc1 | 0.06 |
| Cc1ccc2[nH]c3c(c2c1)CNCC3 | -0.32 |
| O=C(Cn1cnc2sccc2c1=O)Nc1ccccc1Oc1ccccc1 | -0.13 |

| SMILES | TSA(without NAD+) / Primary screening (TSA) / delta Tm (K) |
| --- | --- |
| Cc1csc2c(N3CCN4CCC3CC4)ncnc12 | -0.18 |
| O=C1c2ccccc2C(=O)N1Cc1cc(=O)n2ccccc2n1 | 0.07 |
| Cc1cc(N2CCN(CC(=O)Nc3sc4c(c3C(N)=O)CCCC4)CC2)nc(C(C)C)n1 | -0.03 |
| CCC(O)CN(C)Cc1ccc2ccccc2c1 (stereo not shown) | 0.06 |
| CCN(C(=O)CSc1nnc(-c2sc3ccccc3c2Cl)o1)C1CCS(=O)(=O)C1 (stereo not shown) | -0.04 |
| O=C(Cc1c[nH]c2ccccc12)N1CCc2[nH]c3ccccc3c2C1 | -0.14 |
| Cc1ccc2c(n1)nn1c(O)cc(C)nc21 | -0.12 |
| COc1cccc(CN(C(=O)COC(=O)c2ccc(NC(C)=O)cc2)C23CC4CC(CC(C4)C2)C3)c1 | -0.33 |
| O=C(COC(=O)C1(c2ccc(Cl)cc2)CCCC1)Nc1cc(S(=O)(=O)N2CCOCC2)ccc1N1CCCC1 | -0.02 |
| O=C(NCC(O)c1ccccc1)c1ccc2c(=O)[nH]c(S)nc2c1 (stereo not shown) | -0.13 |
| CCC(NC(=O)C1=COCCC1)C1CN(Cc2ccccc2)CCO1 (stereo not shown) | -0.04 |
| COCCCNCc1ccccc1 | -0.13 |
| Cc1nc(N2CCN(Cc3nc(-c4ccccc4)no3)CC2)c2c3c(sc2n1)CC(C)CC3 (stereo not shown) | -0.08 |
| CCc1ncnc(N2CCCC(c3cc(C(N)=O)[nH]n3)C2)c1F (stereo not shown) | -0.02 |
| CN(C)C(CNC(=O)c1ccc2c(c1)OCCCO2)c1ccco1 (stereo not shown) | -0.03 |
| CN(c1ccc2ccccc2n1)S(=O)(=O)c1cc(C(N)=O)n(C)c1 | -0.01 |
| CC(SCC(O)CO)c1nc2ccccc2c(=O)[nH]1 (stereo not shown) | -0.12 |
| CC1CC1c1ccc(/C=C/C(=O)Nc2cc(C(N)=O)ccc2N2CCCC2)o1 (stereo not shown) | -0.17 |
| O=C(O)c1ccc2[nH]c(C(F)(F)F)nc2c1 | -0.01 |
| C=CCN(C(=O)CCCc1nc(C(C)(C)C)no1)c1nc2c(s1)CCCC2 | -0.47 |
| c1ccc2c(c1)NCC1CCCN21 (stereo not shown) | -0.21 |
| CCc1cc2c(N3CCC(C(=O)Nc4cc(C)on4)CC3)ncnc2s1 | -0.08 |
| CCCCn1c(=O)c2c(nc3n(CCCC)c(C)cn23)n(C)c1=O | -0.02 |
| CN(c1ccccc1)S(=O)(=O)c1cccc(NC(=O)c2ccc(C(N)=O)cc2)c1 | 0.02 |
| CC(C)(C)c1ccc(OCCCC(=O)Nc2cccc(S(=O)(=O)N3CCOCC3)c2)cc1 | 0.28 |

| SMILES | TSA(without NAD+) / Primary screening (TSA) / delta Tm (K) |
| --- | --- |
| NC(=O)c1cnc(N2CCC(N3CCNC3=O)CC2)c(Cl)c1 | 0.02 |
| CCc1ccc(-c2noc(COc3ccc(-c4nnco4)cc3)n2)cc1 | -0.15 |
| CNS(=O)(=O)c1cc(N)ccc1C | -0.02 |
| O=C(CN1CCCCCC1=O)N1CCN(c2cnccn2)CC1 | -0.01 |
| CN(c1ccc(Oc2ncnc3ccccc23)cc1)S(=O)(=O)c1ccc2ccccc2c1 | -0.17 |
| CCc1c(C)c(C#N)c2nc3ccccc3n2c1S | 0.39 |
| COC[C@@H](C)N | 0.02 |
| Cc1c(C(=O)N2c3ccccc3NC(=O)C2(C)C)oc2ccc(Br)cc12 | -0.38 |
| c1ccc(-c2[nH]c3c(ccc4ccccc43)c2-c2ccccc2)cc1 | 0.52 |
| O=C(CN1CCN(c2nc(-c3ccccc3)nc3ccccc23)CC1)Nc1nncs1 | -0.28 |
| CC1CCC(NN)CC1 (stereo not shown) | -0.08 |
| COc1cc(CN(C)C(=O)CN2C(=O)NC3(CCc4ccccc43)C2=O)ccc1OCc1ccccc1 (stereo not shown) | -0.17 |
| O=C(NCCc1c[nH]c2ccccc12)C1=COCCO1 | -0.14 |
| COC(=O)CCN | -0.17 |
| O=C(c1cc2c(s1)CCCC2)N(Cc1ccccc1)c1ccccc1 | -0.08 |
| CCC(CN)OC (stereo not shown) | -0.28 |
| CSc1nc(-c2ccccc2)c[nH]1 | -0.13 |
| O=c1[nH]nc(-c2ccc(F)cc2)o1 | -0.01 |
| O=C(/C=C/c1ccco1)C1=C(O)C(=O)N(CCN2CCOCC2)C1c1ccncc1 (stereo not shown) | -0.02 |
| CC1(C)CC(=O)C(=CNNC(=O)CC23CC4CC(CC(C4)C2)C3)C(=O)C1 | -0.02 |
| Cc1cc(CNC(=O)Cc2sc(S)nc2C)on1 | -0.11 |
| Cc1cccc(-c2nc3ccccc3n3c(C)nnc23)c1 | -0.14 |

6 compounds picked at random from the list so far:

| SMILES | TSA(without NAD+) / Primary screening (TSA) / delta Tm (K) |
| --- | --- |
| COC[C@@H](C)N | 0.02 |
| O=C(CN1CCCCCC1=O)N1CCN(c2cnccn2)CC1 | -0.01 |
| COc1cc(CN(C)C(=O)CN2C(=O)NC3(CCc4ccccc43)C2=O)ccc1OCc1ccccc1 (stereo not shown) | -0.17 |
| O=c1[nH]nc(-c2ccc(F)cc2)o1 | -0.01 |
| Cc1c(C(=O)N2c3ccccc3NC(=O)C2(C)C)oc2ccc(Br)cc12 | -0.38 |
| Cc1cc(CNC(=O)Cc2sc(S)nc2C)on1 | -0.11 |
